# “Also recorded” adds a separate entry of the source. At least one compound was matched to its structure with a doubt left.
# Tested on: epidermis
# Assay: Epidermal thickness after full-thickness skin biopsy and topical treatment
# Format: in vivo, mice
# Settings: topical daily for 8 days in DMSO-based vehicle, rebiopsy, H&E
# Protocol: FIG. 4 illustrates that topical treatment with GM-284 increases epidermal thickness in vivo. Eight days after full-thickness skin biopsies and daily treatment with vehicle, FK506, or GM-284, the original biopsy sites were rebiopsied and stained with hemotoxylin and eosin.
# To examine this possibility, 5-mm, full-skin thickness biopsies were taken from the hindquarters of both male and female ICR retired breeders. The wounds were treated daily, for 8 days, with topical administration of either the DMSO-based vehicle, or FK506 or GM-284 in the vehicle. Thereafter, the original biopsy site was rebiopsied. […] In contrast, the epidermis of the GM-284-treated animals was much thicker, and appeared to be much more cellular, than the epidermis of animals under the other two conditions (FIG. 4, panel c).
compound,measurement,value
"C=CC[C@@H]1/C=C(\C)C[C@H](C)C[C@H](OC)[C@H]2O[C@@](O)(C(=O)C(=O)N3CCCC[C@H]3C(=O)O[C@H](/C(C)=C/[C@@H]3CC[C@@H](O)[C@H](OC)C3)[C@H](C)[C@@H](O)CC1=O)[C@H](C)C[C@@H]2OC [FK506, reference compound]",epidermal thickness versus vehicle (FIG. 4),no apparent difference in the epidermal thickness; also recorded: no observable differences
